Reference: article doi:10.1101/583864
Results are given in words; binding and its absence hold for the method and conditions named. Some binding calls cover weakened binding; strength is not graded here.

Biological target: T1, Apoptotic Protease Activating Factor 1 (APAF1), endogenous (human (endogenous in U2OS)), O14727
T1 chain: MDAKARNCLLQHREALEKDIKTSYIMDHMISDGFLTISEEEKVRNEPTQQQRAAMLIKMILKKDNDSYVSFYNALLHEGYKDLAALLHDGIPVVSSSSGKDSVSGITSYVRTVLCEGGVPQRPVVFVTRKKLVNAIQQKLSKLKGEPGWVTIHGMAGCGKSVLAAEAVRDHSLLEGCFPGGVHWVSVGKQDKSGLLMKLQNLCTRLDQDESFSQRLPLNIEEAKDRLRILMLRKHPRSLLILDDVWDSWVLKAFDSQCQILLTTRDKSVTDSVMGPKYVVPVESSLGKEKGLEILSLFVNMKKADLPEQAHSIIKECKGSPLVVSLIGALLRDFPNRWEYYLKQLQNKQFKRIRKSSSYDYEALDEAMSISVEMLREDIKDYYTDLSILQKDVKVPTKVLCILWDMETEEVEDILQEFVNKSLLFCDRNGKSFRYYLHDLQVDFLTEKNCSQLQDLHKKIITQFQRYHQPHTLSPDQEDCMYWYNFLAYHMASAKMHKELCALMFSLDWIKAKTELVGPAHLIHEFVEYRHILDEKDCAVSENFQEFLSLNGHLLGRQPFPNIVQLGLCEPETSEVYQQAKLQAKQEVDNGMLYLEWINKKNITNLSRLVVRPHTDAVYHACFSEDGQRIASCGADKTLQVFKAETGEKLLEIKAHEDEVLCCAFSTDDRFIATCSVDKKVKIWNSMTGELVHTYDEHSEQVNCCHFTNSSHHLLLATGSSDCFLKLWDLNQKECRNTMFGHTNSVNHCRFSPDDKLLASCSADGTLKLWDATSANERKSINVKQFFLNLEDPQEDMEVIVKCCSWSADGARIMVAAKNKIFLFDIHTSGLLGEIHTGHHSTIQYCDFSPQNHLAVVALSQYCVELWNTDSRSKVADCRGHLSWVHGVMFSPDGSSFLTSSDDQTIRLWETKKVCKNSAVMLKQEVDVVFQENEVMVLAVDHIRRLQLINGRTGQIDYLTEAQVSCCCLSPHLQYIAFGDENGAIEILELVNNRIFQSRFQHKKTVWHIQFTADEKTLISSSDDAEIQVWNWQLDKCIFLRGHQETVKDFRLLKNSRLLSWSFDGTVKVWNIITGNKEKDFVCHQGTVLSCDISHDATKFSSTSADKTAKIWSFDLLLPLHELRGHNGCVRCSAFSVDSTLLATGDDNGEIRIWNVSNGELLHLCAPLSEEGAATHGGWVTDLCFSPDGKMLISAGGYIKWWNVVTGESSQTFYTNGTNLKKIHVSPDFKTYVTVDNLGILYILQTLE
Test: sucrose gradient centrifugation
Conditions: remark: other sources report otherwise

B1: Apoptotic Protease Activating Factor 1 (APAF1), endogenous, O14727 1-1248 (protein)
chain: T1 chain
- binding: binds
